# Assay results taken from the RNAGym collection of RNA variant scans (doi:10.1126/science.aae0568).
# Variants at the background level are over-represented here.
# B1: tRNA (parent)
# chain: GUUCCGUUGGCGUAAUGGUAACGCGUCUCCCUCCUAAGGAGAAGACUGCGGGUUCGAGUCCCGUACGGAACG
# Variants of: B1
# Experiment: yeast fitness relative to wild type (ratio to wild type); higher = fitter; tRNA-Arg(CCU), competitive growth, 37 C, YPD
# Method in brief: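 A pool of Saccharomyces cerevisiae strains, each with a tRNA-Arg(CCU) gene variant at the native genomic locus, was competed in YPD at 37°C for 24 hours across six parallel replicates. The variants had been chemically synthesised at a 3% per-site mutation rate over 69 sites, and gene amplicons before and after competition were read by 100-nucleotide paired-end sequencing. Darwinian fitness relative to wild type rested on changes in genotype frequencies. Genotypes required ≥ 100 starting reads, and estimates < 0.5 were set to 0.5.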
row,Variant,yeast fitness
1,C4U C11G C31G,≤ 0.5
2,A15G C22U U53G,≤ 0.5
3,G12A A45G U47C U59A C66U,≤ 0.5
4,A21G G68C,0.949
5,C46U C66U,1.02
6,G51A A69C,0.979
7,U3A C11G A14C C62U G67C,≤ 0.5
8,U32G U35A A36G C66U,≤ 0.5
9,C4U C11G G18A G23C U47G G50A C61U,≤ 0.5
10,U3G A15G C24G G63C G67A,≤ 0.5
11,U2G U13G A36G C49U G56A A70G,≤ 0.5
12,C4G A45C G48C,≤ 0.5
13,C11U C33A C34A U35C A36C G39C U47A U59C,≤ 0.5
14,U8A U16A C29G A42G C46G A65U,≤ 0.5
15,A40C A42C A43G,≤ 0.5
16,C4U C29U C31U A65C,≤ 0.5
17,G12A A21C U59A G67A,≤ 0.5
18,C4G A42U C55U C62G A70C,≤ 0.5
19,U8A U28C A43U,≤ 0.5
20,U26C A43C G52A U53C G63C,≤ 0.5
21,C5A G23A A42C U47G,≤ 0.5

row,Variant,yeast fitness
1,C4U C11A G12A G48A A57C A70C,≤ 0.5
2,C5A U8G U28G A57C,≤ 0.5
3,C4A G23C A40C C55A A69U,≤ 0.5
4,G10C A21G C29A A43U C55A,0.651
5,A14U C29G C30U U53C U54G,≤ 0.5
6,G6A C22U G44A C46A G52A C66U,≤ 0.5
7,U32A A36U A70G,≤ 0.5
8,G41A G48C C49U A57C A70U,≤ 0.5
9,U16C C31U C33A C34G U35A C66U,≤ 0.5
10,G44C G52A,0.833
11,C4G C29G A57C,0.612
12,C24A A36C A37C C46U,≤ 0.5
13,C4U G6A U13C U28C,0.616
14,C11U U19G A20U,0.764
15,G6A G12C A14G C49G,≤ 0.5
16,U7A U19G A70G,≤ 0.5
17,C11G C30U G67C,≤ 0.5
18,C11G U32A A37G A70U,≤ 0.5
19,A36C C46G G67C,≤ 0.5
20,A15G G23C C30A A42C G51C C61A G67A,≤ 0.5
21,C11U C22U C49U C66U,≤ 0.5

row,Variant,yeast fitness
1,U32G G39C G52C G56A,≤ 0.5
2,U19C A42U C46U C55G G63C,≤ 0.5
3,U2A C24G,0.643
4,G6C G56A C60G,≤ 0.5
5,A21G C49A U54C A65G,≤ 0.5
6,U54C C55G C60G C62A,≤ 0.5
7,C30A C31A G38A C49U G52A,≤ 0.5
8,C31G C46G A57C,≤ 0.5
9,G17C A42G A65U,≤ 0.5
10,U16C U32G C34G U53A G63C,≤ 0.5
11,G10A C34G A43G G68C,≤ 0.5
12,A42C G56A,1.01
13,G23C C29G A43U G50A A70G,≤ 0.5
14,A15C G25C C29U U35C A43U G56C,≤ 0.5
15,C4U C61U A70G,0.777
16,C27A A45U C49U C60G A65U,≤ 0.5
17,A14G C34G A65U A70G,≤ 0.5
18,C4A C55U,0.943
19,G18A A20G,0.613
20,A15G C24U G68C,≤ 0.5
21,C5U C11G C34U A42C C61A A70U,≤ 0.5

row,Variant,yeast fitness
1,C5U C22G A69C,0.691
2,C5A G23A C24U A36C,≤ 0.5
3,G10A A14G U47C,≤ 0.5
4,U2G U13G U16C G63A,≤ 0.5
5,U3A A42C G63A,≤ 0.5
6,A14U A43G G63C,≤ 0.5
7,A20U C22U U32A C66U,≤ 0.5
8,A15U C60G C61U G68A,≤ 0.5
9,U3A C4A U16A C30G G63A U64C G67C,≤ 0.5
10,C4A G12A C31U U59A G63A,≤ 0.5
11,C34G A43U G52A,≤ 0.5
12,C31U G39A G44A C61A,≤ 0.5
13,U16C A21C A37G A42C C55A,≤ 0.5
14,C5A A20C C22A A36C A69C,≤ 0.5
15,C24U C27U A57C,≤ 0.5
16,C24A U26A C31A C55A U64C,≤ 0.5
17,G6A C22G A45C G52C A57U A69C,≤ 0.5
18,C5G G6A C29U C33G G38A U59G,0.562
19,U28A C31U G41A,≤ 0.5
20,A21G U35G U59A,≤ 0.5
21,G6U C11G A69C,≤ 0.5
